Source: PubChem BioAssay AID504749 (NCATS, 2011).

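A panel of P. falciparum strains inside erythrocytes is exposed to compounds for three days, then a DNA-binding dye reports the amount of parasite DNA.
Each compound was titrated across a series from about 0.000037 to 29 µM.
The number is the fitted AC50, the concentration giving a half-maximal change in signal; a lower value means higher potency, whether the curve shows a decrease or an increase.
Calls follow the curve class and fit quality: every row here is inconclusive, covering signal-raising curves and weak, poorly fitted, partial or highest-dose-only inhibition curves.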

Values are in µM.
Every entry below has the call inconclusive.
Only part of the assay is shown, chiefly results filed as inconclusive.
A potency from a partial, single-point or poor curve is only a rough figure.

With CN(C)CC/C=C1\c2ccccc2Sc2ccc(Cl)cc21 [DIV30] the assay gave fitted potency 6.746 µM (inhibitor, partial curve).
With CN(C)CC/C=C1\c2ccccc2Sc2ccc(Cl)cc21 [PAD] the assay gave fitted potency 12.59 µM (inhibitor, partial curve).
With CN(C)CC/C=C1\c2ccccc2Sc2ccc(Cl)cc21 [CP217] the assay gave fitted potency 10 µM (inhibitor, partial curve).
With CN(C)CC/C=C1\c2ccccc2Sc2ccc(Cl)cc21 [DFO2036] the assay gave fitted potency 17.78 µM (inhibitor, single point).
With CN(C)CC/C=C1\c2ccccc2Sc2ccc(Cl)cc21 [CP269] the assay gave fitted potency 9.528 µM (inhibitor, partial curve, poor fit).
With CN(C)CC/C=C1\c2ccccc2Sc2ccc(Cl)cc21 [P93_24] the assay gave fitted potency 8.912 µM (inhibitor, partial curve).
With CN(C)CC/C=C1\c2ccccc2Sc2ccc(Cl)cc21 [AA1029] the assay gave fitted potency 11.22 µM (inhibitor, partial curve).
With CN(C)CC/C=C1\c2ccccc2Sc2ccc(Cl)cc21 [CP325] the assay gave fitted potency 12 µM (inhibitor, single point).
With CN(C)CC/C=C1\c2ccccc2Sc2ccc(Cl)cc21 [CP252] the assay gave fitted potency 12.59 µM (inhibitor, partial curve).
With CN(C)CC/C=C1\c2ccccc2Sc2ccc(Cl)cc21 [CP237] the assay gave fitted potency 12.59 µM (inhibitor, partial curve).
With CN(C)CC/C=C1\c2ccccc2Sc2ccc(Cl)cc21 [ATS189] the assay gave fitted potency 7.943 µM (inhibitor, partial curve).
With CN(C)CC/C=C1\c2ccccc2Sc2ccc(Cl)cc21 [CP265] the assay gave fitted potency 5.012 µM (inhibitor, partial curve).
With CN(C)CC/C=C1\c2ccccc2Sc2ccc(Cl)cc21 [SC27B] the assay gave fitted potency 12.59 µM (inhibitor, partial curve).
With CN(C)CC/C=C1\c2ccccc2Sc2ccc(Cl)cc21 [CP211] the assay gave fitted potency 16.94 µM (inhibitor, single point).
With CN(C)CC/C=C1\c2ccccc2Sc2ccc(Cl)cc21 [PC26] the assay gave fitted potency 5.358 µM (inhibitor, partial curve).
With CN(C)CC/C=C1\c2ccccc2Sc2ccc(Cl)cc21 [CP203] the assay gave fitted potency 16.94 µM (inhibitor, single point).
With CN(C)CC/C=C1\c2ccccc2Sc2ccc(Cl)cc21 [ECU] the assay gave fitted potency 11.22 µM (inhibitor, partial curve).
With CN(C)CC/C=C1\c2ccccc2Sc2ccc(Cl)cc21 [TAB109] the assay gave fitted potency 11.22 µM (inhibitor, single point).
With CN(C)CC/C=C1\c2ccccc2Sc2ccc(Cl)cc21 [CP291] the assay gave fitted potency 8.492 µM (inhibitor, partial curve, poor fit).
With COc1ccc(CN2CCNCC2)c(OC)c1OC [CP325] the assay gave fitted potency 8.087 µM (inhibitor, single point).
With COc1ccc(CN2CCNCC2)c(OC)c1OC [CP315] the assay gave fitted potency 8.087 µM (inhibitor, single point).
With COc1ccc(CN2CCNCC2)c(OC)c1OC [CP297] the assay gave fitted potency 8.087 µM (inhibitor, single point).
With COc1ccc(CN2CCNCC2)c(OC)c1OC [CP269] the assay gave fitted potency 5.726 µM (inhibitor, single point).

The last 2 entries again:

Result for COc1ccc(CN2CCNCC2)c(OC)c1OC [CP297] was fitted potency 8.087 µM (inhibitor, single point).
Result for COc1ccc(CN2CCNCC2)c(OC)c1OC [CP269] was fitted potency 5.726 µM (inhibitor, single point).